Reference: the supplement of paper PMC10849652
Some of the results follow.

Chains of the proteins cited; added tags and fusions are not shown. Lines headed by an entry give the natural chain unless they say otherwise; changes in a name come on top.
UniProt Q6YHK3: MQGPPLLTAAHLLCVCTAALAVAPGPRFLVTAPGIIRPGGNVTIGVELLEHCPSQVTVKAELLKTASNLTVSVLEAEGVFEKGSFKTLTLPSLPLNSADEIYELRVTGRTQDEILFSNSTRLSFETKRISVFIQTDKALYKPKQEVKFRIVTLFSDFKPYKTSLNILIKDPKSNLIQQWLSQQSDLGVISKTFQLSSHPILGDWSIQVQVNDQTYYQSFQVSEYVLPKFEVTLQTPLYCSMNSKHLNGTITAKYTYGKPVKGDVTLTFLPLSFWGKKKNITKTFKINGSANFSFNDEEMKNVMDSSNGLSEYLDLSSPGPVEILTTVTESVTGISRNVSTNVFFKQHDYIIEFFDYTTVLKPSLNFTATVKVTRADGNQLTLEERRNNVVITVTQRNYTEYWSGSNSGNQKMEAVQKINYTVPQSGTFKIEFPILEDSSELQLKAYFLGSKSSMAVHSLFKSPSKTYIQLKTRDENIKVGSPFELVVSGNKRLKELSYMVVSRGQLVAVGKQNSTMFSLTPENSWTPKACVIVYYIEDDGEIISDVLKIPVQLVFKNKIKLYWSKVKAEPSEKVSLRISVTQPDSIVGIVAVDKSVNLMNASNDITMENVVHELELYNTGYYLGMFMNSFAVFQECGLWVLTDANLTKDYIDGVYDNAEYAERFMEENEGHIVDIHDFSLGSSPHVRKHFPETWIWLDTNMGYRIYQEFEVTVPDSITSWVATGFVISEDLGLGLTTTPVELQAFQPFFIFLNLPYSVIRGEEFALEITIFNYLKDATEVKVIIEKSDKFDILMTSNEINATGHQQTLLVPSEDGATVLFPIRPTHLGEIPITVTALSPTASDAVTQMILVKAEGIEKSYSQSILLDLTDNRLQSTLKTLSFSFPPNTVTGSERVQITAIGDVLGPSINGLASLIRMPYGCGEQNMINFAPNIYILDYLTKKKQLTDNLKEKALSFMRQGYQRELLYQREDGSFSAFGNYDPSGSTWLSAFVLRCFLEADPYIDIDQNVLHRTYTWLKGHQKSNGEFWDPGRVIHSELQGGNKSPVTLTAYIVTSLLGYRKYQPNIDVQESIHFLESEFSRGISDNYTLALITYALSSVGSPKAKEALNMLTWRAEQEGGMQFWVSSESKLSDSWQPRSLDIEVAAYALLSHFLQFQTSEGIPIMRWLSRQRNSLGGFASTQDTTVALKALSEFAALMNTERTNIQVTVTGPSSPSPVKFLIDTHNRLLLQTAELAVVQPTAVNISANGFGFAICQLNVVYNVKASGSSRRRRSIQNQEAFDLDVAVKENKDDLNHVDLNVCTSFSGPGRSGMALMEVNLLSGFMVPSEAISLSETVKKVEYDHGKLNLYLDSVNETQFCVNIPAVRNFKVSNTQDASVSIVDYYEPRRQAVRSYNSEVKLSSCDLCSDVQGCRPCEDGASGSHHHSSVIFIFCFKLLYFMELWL
UniProt Q9BUN5: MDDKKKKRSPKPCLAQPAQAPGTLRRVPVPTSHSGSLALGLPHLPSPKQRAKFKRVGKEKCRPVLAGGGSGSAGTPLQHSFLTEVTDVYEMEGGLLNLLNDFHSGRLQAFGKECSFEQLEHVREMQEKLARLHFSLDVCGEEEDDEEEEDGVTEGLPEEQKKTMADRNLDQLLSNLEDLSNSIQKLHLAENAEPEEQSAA
UniProt Q15834: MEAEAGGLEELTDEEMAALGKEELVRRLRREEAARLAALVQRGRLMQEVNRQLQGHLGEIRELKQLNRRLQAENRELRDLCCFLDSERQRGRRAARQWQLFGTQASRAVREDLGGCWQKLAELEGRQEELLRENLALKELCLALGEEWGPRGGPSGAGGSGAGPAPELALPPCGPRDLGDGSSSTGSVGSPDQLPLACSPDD
UniProt Q13951, whole entry, looked up: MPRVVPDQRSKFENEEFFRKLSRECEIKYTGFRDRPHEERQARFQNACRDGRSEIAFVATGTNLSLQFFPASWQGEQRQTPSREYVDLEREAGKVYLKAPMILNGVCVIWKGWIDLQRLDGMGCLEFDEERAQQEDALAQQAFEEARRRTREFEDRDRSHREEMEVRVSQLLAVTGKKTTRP
UniProt Q8IWP9: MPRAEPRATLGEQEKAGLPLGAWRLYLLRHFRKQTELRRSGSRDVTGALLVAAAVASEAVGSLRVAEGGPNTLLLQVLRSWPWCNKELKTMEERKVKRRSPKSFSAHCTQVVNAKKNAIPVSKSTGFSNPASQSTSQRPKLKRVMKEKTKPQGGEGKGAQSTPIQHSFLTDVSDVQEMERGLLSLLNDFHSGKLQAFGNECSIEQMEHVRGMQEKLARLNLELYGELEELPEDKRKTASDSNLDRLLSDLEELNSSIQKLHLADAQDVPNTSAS
UniProt P24864, whole entry, looked up: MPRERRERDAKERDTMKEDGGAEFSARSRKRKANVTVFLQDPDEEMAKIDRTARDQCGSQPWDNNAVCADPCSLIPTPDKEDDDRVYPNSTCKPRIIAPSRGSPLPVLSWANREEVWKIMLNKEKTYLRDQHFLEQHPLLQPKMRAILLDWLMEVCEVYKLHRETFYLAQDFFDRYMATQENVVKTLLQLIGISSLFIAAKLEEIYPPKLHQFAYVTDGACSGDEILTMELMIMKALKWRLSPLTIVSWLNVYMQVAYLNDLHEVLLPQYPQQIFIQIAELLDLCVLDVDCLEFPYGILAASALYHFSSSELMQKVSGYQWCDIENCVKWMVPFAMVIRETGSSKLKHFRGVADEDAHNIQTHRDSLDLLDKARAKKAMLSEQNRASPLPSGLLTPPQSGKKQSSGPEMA
UniProt Q9UIB8: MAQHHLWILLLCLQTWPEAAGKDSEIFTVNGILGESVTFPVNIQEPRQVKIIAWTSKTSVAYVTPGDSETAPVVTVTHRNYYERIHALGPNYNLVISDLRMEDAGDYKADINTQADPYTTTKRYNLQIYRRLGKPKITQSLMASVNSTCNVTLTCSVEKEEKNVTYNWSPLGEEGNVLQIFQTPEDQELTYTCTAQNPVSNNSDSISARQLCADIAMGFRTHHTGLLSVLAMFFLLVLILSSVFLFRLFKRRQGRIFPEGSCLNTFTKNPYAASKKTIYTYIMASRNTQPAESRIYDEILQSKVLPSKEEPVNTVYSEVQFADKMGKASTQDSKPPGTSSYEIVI
UniProt Q8N4S0: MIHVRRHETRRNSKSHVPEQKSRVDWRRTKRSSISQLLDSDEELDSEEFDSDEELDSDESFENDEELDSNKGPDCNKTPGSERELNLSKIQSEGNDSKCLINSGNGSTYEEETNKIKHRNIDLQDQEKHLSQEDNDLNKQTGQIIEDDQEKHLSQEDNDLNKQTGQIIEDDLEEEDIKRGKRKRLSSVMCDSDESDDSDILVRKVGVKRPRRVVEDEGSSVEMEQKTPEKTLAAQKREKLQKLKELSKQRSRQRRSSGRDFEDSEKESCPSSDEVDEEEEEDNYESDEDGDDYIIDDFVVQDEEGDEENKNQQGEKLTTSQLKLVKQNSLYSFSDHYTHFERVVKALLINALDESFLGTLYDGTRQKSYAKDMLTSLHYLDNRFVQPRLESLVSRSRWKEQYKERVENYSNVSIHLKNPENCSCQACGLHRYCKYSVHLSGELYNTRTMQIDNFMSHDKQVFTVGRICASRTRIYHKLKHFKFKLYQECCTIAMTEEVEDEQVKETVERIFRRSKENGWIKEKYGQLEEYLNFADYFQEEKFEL
UniProt Q9UK58: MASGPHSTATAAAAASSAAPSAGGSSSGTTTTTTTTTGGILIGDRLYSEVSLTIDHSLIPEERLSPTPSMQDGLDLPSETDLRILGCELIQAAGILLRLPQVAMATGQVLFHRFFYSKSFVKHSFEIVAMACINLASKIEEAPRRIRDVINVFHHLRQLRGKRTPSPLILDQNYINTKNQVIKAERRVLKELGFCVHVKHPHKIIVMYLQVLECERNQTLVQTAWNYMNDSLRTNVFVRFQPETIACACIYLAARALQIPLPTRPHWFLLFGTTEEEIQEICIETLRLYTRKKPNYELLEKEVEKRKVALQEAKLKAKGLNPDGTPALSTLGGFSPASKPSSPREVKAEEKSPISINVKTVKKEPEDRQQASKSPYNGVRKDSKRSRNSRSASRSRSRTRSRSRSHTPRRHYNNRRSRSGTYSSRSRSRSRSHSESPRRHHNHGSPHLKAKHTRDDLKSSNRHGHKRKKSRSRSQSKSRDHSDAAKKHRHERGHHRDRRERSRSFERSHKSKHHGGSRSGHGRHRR
UniProt P30279, whole entry, looked up: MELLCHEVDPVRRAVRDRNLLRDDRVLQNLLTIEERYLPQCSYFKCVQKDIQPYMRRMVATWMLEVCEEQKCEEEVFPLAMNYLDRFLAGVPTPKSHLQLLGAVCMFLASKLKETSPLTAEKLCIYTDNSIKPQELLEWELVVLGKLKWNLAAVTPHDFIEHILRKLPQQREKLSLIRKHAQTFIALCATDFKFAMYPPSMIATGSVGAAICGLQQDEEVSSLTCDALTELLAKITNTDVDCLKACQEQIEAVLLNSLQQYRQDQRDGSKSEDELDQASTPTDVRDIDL
UniProt Q2TAC2: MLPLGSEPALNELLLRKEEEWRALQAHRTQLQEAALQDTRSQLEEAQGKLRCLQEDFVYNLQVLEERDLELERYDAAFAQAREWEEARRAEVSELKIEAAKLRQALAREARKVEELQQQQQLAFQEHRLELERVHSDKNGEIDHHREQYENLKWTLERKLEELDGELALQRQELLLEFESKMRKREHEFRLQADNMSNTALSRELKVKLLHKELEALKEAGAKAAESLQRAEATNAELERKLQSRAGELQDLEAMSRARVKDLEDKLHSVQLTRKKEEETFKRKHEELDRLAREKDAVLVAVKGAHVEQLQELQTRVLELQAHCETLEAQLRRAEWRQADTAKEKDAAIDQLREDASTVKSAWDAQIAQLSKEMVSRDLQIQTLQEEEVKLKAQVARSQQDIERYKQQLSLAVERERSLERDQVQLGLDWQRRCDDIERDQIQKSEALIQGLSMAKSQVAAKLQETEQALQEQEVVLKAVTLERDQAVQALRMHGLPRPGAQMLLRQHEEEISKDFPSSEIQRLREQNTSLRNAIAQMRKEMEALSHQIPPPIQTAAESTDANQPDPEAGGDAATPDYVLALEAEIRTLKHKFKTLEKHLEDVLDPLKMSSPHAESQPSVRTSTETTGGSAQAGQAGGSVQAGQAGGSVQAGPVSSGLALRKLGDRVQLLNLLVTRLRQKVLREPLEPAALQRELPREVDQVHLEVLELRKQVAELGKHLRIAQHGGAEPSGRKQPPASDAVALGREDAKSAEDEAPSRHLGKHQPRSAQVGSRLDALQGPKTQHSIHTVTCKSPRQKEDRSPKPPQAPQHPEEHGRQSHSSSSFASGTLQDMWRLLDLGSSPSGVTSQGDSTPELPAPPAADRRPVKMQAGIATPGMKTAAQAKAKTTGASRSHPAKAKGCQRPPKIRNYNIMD
UniProt P34810: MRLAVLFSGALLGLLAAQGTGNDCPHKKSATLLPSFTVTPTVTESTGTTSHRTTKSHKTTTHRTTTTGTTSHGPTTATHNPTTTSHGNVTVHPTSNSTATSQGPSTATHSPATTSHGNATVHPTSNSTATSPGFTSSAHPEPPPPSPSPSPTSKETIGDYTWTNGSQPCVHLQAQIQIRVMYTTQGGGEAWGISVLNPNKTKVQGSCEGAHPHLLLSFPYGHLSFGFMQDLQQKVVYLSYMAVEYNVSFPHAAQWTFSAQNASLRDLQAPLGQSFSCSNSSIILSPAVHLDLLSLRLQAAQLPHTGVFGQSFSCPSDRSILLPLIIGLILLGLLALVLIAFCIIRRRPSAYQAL
UniProt Q4G0I0: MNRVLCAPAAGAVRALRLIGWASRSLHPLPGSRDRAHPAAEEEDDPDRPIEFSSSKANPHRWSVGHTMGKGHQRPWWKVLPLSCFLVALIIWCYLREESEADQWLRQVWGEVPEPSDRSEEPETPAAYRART
UniProt P16070: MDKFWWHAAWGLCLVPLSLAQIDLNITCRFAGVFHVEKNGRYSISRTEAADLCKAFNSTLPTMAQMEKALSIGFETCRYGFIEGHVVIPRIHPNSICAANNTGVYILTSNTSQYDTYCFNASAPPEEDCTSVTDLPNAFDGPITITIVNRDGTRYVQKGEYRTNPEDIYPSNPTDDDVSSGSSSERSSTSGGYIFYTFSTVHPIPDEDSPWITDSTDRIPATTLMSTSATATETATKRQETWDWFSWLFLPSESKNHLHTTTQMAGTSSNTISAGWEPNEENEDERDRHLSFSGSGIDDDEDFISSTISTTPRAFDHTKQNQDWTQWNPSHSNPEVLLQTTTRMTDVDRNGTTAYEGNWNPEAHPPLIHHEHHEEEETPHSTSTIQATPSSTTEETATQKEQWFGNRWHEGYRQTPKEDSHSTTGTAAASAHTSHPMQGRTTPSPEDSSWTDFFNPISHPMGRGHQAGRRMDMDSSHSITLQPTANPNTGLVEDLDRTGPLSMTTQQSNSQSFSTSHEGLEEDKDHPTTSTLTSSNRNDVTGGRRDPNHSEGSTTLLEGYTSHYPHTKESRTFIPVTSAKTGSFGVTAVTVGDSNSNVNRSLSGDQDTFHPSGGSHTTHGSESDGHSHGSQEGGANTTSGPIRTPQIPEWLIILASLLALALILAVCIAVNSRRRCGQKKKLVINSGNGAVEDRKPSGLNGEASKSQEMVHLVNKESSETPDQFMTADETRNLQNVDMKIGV

Key:
Assay in all cases: log2 fold change, soluble protein after heating vs DMSO (PISA); higher = thermal stabilisation; K562 cells, 10 uM, 30 min; active = over 0.2 and 3.5 SD of the protein, either way, in both replicates (recomputed)
[1] = compound: Cc1cccc(CC(=O)N2CCc3c2ccc(-c2cn(C)c4ncnc(N)c24)c3F)n1
In short: (§1)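 K562 cells at 2×10^6 cells/mL were treated for 30 min with 10 μM compound, and aliquots were heated for 3 min over 48°C-58°C before pooling. Extraction used PBS with 0.5% NP-40 at 4°C, and soluble protein was the supernatant after 21,000xg for 90 min, measured by TMTpro 16plex LC-MS/MS with channel sums equalised. Thermal stability values, relative to control samples and from duplicates, are log2 fold changes.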

dasatinib = compound: Cc1nc(Nc2ncc(C(=O)Nc3c(C)cccc3Cl)s2)cc(N2CCN(CCO)CC2)n1 [dasatinib]
In short: as §1

nilotinib = compound: Cc1cn(-c2cc(NC(=O)c3ccc(C)c(Nc4nccc(-c5cccnc5)n4)c3)cc(C(F)(F)F)c2)cn1 [nilotinib]
In short: as §1

[2] = compound: Cc1nc(Nc2n[nH]c3c2CN(C(=O)N[C@H](CN(C)C)c2ccccc2)C3(C)C)c2sccc2n1
In short: as §1

[3] = compound: Cc1ncc(-c2ccnc(Nc3ccc(S(C)(=O)=O)cc3)n2)n1C(C)C
In short: as §1

[4] = compound: Cn1cc(-c2ccc3c(c2)CCN3C(=O)Cc2cccc(C(F)(F)F)c2)c2c(N)ncnc21
In short: as §1

mubritinib = compound: FC(F)(F)c1ccc(/C=C/c2nc(COc3ccc(CCCCn4ccnn4)cc3)co2)cc1 [mubritinib]
In short: as §1

bafetinib = compound: Cc1ccc(NC(=O)c2ccc(CN3CC[C@H](N(C)C)C3)c(C(F)(F)F)c2)cc1Nc1nccc(-c2cncnc2)n1 [bafetinib]
In short: as §1

tipifarnib = compound: Cn1cncc1[C@@](N)(c1ccc(Cl)cc1)c1ccc2c(c1)c(-c1cccc(Cl)c1)cc(=O)n2C [tipifarnib]
In short: as §1

[5] = compound: Cn1cc(-c2ccc3nnc(C(F)(F)c4ccc5ncccc5c4)n3n2)cn1
In short: as §1

Measured: log2 fold change

CD109 (UniProt Q6YHK3)
inactive: [1] -0.047 | dasatinib 0

CDC25C (UniProt P30307)
inactive: nilotinib -0.1 | [2] 0.068 | dasatinib 0.024 | [3] -0.035 | [4] -0.14 | mubritinib 0.042

CCDC71L isoform 2 (UniProt Q8N9Z2)
inactive: bafetinib 0.005 | [4] -0.075

Quoted at random: 2 entries already listed, in no set order.
CD109 (UniProt Q6YHK3)
inactive: [1] -0.047 | dasatinib 0

CDC25C (UniProt P30307)
inactive: nilotinib -0.1 | [2] 0.068 | dasatinib 0.024 | [3] -0.035 | [4] -0.14 | mubritinib 0.042

Going on with the list:

CCDC28B (UniProt Q9BUN5)
inactive: bafetinib 0.03 | [1] -0.066 | tipifarnib 0.044 | mubritinib -0.073

CBX3 (UniProt B8ZZ43)
inactive: bafetinib -0.085 | dasatinib 0.057

CCDC85B (UniProt Q15834)
inactive: bafetinib -0.036 | [1] -0.015 | dasatinib 0.016 | [4] 0.26 | tipifarnib -0.111 | mubritinib -0.29

CD33 (UniProt P20138)
inactive: [1] -0.033 | dasatinib 0.066 | [5] -0.252 | tipifarnib 0.065

CD9 (UniProt P21926)
inactive: [1] 0.471 | dasatinib -0.173 | [4] 0.051

CCND1 (UniProt P24385)
inactive: [5] -0.114

CCDC66 (UniProt A2RUB6)
inactive: [1] -0.157 | nilotinib -0.109 | [2] -0.13 | [3] 0.311 | mubritinib 0.363

CASP9 (UniProt P55211)
inactive: [1] 0.037 | nilotinib -0.013 | [2] -0.136 | dasatinib -0.075 | [3] 0 | [4] -0.276 | [5] -0.004 | tipifarnib 0.003

CBLL1 (UniProt Q75N03)
inactive: nilotinib 0.098 | [2] -0.243 | dasatinib 0.068 | [3] -0.081 | [4] -0.02 | [5] -0.053 | tipifarnib 0.027

CD2BP2 (UniProt O95400)
inactive: bafetinib -0.109 | dasatinib 0.108 | tipifarnib 0.104

CBFB (UniProt Q13951)
inactive: bafetinib -0.066 | nilotinib -0.02 | [2] 0.006 | dasatinib -0.13 | [3] 0.012 | [4] 0.064 | [5] 0.079 | mubritinib 0.012

CCT6B isoform 3 (UniProt Q92526)
inactive: dasatinib -0.007 | [4] 0.117 | tipifarnib -0.014

CCDC28A (UniProt Q8IWP9)
inactive: bafetinib 0.052 | nilotinib -0.029 | [2] -0.1 | dasatinib -0.052 | [3] -0.03 | [4] -0.306 | [5] 0.003 | tipifarnib 0.085 | mubritinib -0.005

CCNE1 (UniProt P24864)
inactive: bafetinib 0.045 | [1] 0.212 | dasatinib -0.173 | [5] -0.009 | tipifarnib 0.049

CCDC187, A0A1W2PQX5
inactive: [1] -0.106 | nilotinib 0.318 | [2] 0.027 | [3] 0.104 | [5] -0.056

CD37 (UniProt P11049)
inactive: [1] -0.07 | nilotinib -0.248 | [2] 0.146 | dasatinib -0.012 | [3] 0.103 | tipifarnib 0.056

CCDC97 (UniProt Q96F63)
inactive: bafetinib -0.022 | nilotinib -0.074 | [2] -0.115 | dasatinib 0.021 | [3] -0.149 | [4] -0.013 | [5] -0.045 | tipifarnib -0.018 | mubritinib 0.01

CCNL2 (UniProt Q96S94)
inactive: nilotinib 0 | [2] 0.002 | [3] -0.562

CD84 (UniProt Q9UIB8)
inactive: dasatinib 0.169 | [4] -0.117

CD80 (UniProt P33681)
inactive: [1] -0.144 | nilotinib 0.069 | [2] -0.022 | dasatinib -0.018 | [3] 0.026 | [4] -0.054 | [5] -0.001 | tipifarnib -0.045 | mubritinib -0.054

CDC25A (UniProt P30304)
inactive: bafetinib -0.072 | nilotinib 0.005 | [2] -0.016 | [3] -0.053 | mubritinib 0.044

CCNE2 (UniProt O96020)
inactive: dasatinib -0.096

CCDC82 (UniProt Q8N4S0)
inactive: bafetinib -0.091 | nilotinib 0.018 | [2] -0.017 | dasatinib 0.015 | [3] -0.043 | [4] -0.132 | [5] -0.021 | tipifarnib 0.01 | mubritinib 0.087

CDC27 (UniProt G5EA36)
inactive: [4] 0.116 | [5] -0.227 | tipifarnib -0.051

CCNL1 (UniProt Q9UK58)
inactive: mubritinib 0.122

CBX8 (UniProt Q9HC52)
inactive: dasatinib -0.198 | [4] 0.087 | [5] -0.003

CCDC102A (UniProt Q96A19)
inactive: [1] -0.309 | [4] 0.006 | tipifarnib 0.026

CD46 (UniProt P15529)
inactive: bafetinib -0.002 | dasatinib 0.119

CCND2 (UniProt P30279)
inactive: [4] 0.103

CCDC57 (UniProt Q2TAC2)
inactive: bafetinib -0.025 | nilotinib -0.044 | [2] -0.023 | [3] -0.021 | [4] 0.068 | [5] -0.021 | tipifarnib -0.023 | mubritinib 0.031

CAV1 (UniProt F8WDM7)
inactive: [4] -0.041

CD68 (UniProt P34810)
inactive: bafetinib -0.091 | mubritinib -0.003

CCSMST1 (UniProt Q4G0I0)
inactive: bafetinib -0.131 | nilotinib 0.024 | [2] -0.028 | dasatinib 0.04 | [3] -0.031 | [4] 0.12 | [5] 0.049 | tipifarnib -0.02 | mubritinib 0.041

CDC37 (UniProt K7EL68)
inactive: bafetinib -0.068 | nilotinib 0.042 | [2] -0.102 | dasatinib -0.063 | [3] 0.15 | [4] -0.026 | [5] 0.098 | tipifarnib -0.043

CASK (UniProt O14936)
inactive: dasatinib 0.096

CD44 (UniProt P16070)
inactive: dasatinib 0.04 | [4] 0.133 | tipifarnib -0.207

CCNT2 (UniProt O60583)
inactive: [1] -0.117 | nilotinib 0.105 | [2] -0.161 | dasatinib -0.02 | [3] -0.462 | [5] -0.219 | tipifarnib 0.08 | mubritinib -0.209
